In patent US20230312753A1 (IMMUNORIZON, published 2023) one finds binding data, which are given here for one molecule.

No constants are given. Whether binding was seen depends on the method and setting. Some results given as binding are weak or reduced against the parent protein; the word gives no strength.

The target in test [1] is 5T4 on cells (NCI-H226 endogenous; CHO over-expressing 5T4) (UniProt Q13641). Kind of test: FACS on cells.
The target in test [2] is T1, h5T4-His (recombinant human 5T4) (human, UniProt Q13641 32-355, limits assumed).
T1 construct: Bought protein; also called recombinant 5T4
T1 sequence (looked up): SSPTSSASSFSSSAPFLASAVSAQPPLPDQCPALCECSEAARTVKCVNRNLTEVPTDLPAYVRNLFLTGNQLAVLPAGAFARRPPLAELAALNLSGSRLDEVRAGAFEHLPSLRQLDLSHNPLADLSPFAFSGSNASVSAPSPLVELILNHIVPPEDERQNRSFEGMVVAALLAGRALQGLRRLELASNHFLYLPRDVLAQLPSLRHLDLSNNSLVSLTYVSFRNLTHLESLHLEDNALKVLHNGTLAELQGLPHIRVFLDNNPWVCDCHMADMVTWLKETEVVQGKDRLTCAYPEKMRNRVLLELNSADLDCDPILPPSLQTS
Kind of test: ELISA on recombinant proteins. For orientation: In an ELISA, binding on a coated surface is turned into a signal by an enzyme label.

B1: IM-1093 Tribody, NKG2A mutant variant (other)
heavy: GGSGGSEVQLVESGGGLVQPGGSLRLSCAASGFTFNTYAMNWVRQAPGKGLEWVARIRSKYNNYATYYADSVKDRFTISRDDSKNTLYLQMNSLRAEDTAVYYCVRHGNFGNSYVSWFAYWGQGTMVTVSSASTKGPSVFPLAPSSKSTSGGTAALGCLVKDYFPEPVTVSWNSGALTSGVHTFPAVLQSSGLYSLSSVVTVPSSSLGTQTYICNVNHKPSNTKVDKRVEPKSCPPCGGGGSDIQMTQSPSSLSASVGDRVTITCRASENIYSALAWYQQKPGKAPKLLIYNAKTLAEGVPSRFSGSGSGTDFTLTISSLQPEDFATYYCQHHAGTPRTFGGGTKVEIKGGGGSGGGGSGGGGSGGGGSQVQLVQSGAEVKKPGASVKVSCKASGYTFTSYWMNWVRQAPGQGLEWMGRIDPYDSETHYAQKLQGRVTMTTDTSTSTAYMELRSLRSDDTAVYYCARGGYDFDVDTLYWFFDVWGQGTTVTVSS
light: GGSGGSQAVVTQEPSLTVSPGGTVTLTCRSSTGAVTTSNYANWVQQKPGQAPRGLIGGTNKRAPGTPARFSGSLLGGKAALTLSGVQPEDEAEYYCALWYSNLWVFGGGTKLTVLGQPKAAPSVTLFPPSSEELQANKATLVCLISDFYPGAVTVAWKADSSPVKAGVETTTPSKQSNNKYAASSYLSLTPEQWKSHRSYSCQVTHEGSTVEKTVAPTECPPCSGGGSDIQMTQSPSSLSASVGDRVTITCRASQGISNYLAWFQQKPGKAPKSLIYRANRLQSGVPSRFSGSGSGTDFTLTISSLQPEDVATYYCLQYDDFPWTFGQGTKLEIKGGGGSGGGGSGGGGSGGGGSQVQLVQSGAEVKKPGASVKVSCKASGYTFTSFWMHWVRQAPGQGLEWMGRIDPNRGGTEYNEKAKSRVTMTADKSTSTAYMELSSLRSEDTAVYYCAGGNPYYPMDYWGQGTTVTVSS
notes: also called NKG2A mutated Tribody
As to B1, the binding result in test [1] and in test [2] was “binds” throughout.
